Article PMC10349816
No constants are given. Whether binding was seen depends on the method and setting. Binding seen in cells or lysates may run through a third protein. Some binding calls cover weakened binding; strength is not graded here.

Chains of the proteins cited; added tags and fusions are not shown.
UniProt P25963: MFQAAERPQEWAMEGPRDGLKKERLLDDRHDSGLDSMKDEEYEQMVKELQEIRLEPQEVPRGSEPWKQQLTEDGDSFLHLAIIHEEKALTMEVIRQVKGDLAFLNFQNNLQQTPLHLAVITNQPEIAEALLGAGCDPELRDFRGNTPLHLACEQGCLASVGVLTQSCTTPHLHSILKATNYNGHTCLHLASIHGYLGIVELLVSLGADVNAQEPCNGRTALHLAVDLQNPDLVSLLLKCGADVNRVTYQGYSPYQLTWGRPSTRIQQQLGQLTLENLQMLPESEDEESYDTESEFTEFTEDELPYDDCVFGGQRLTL
UniProt P04792: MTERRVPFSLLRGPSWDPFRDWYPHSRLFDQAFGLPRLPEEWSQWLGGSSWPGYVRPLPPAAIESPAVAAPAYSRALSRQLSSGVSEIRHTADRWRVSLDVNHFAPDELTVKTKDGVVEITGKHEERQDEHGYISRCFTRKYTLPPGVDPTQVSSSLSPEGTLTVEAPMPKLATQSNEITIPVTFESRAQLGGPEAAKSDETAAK

Target: Ikβ-α (human (endogenous in MDA-MB-231 and MDA-MB-468)) (UniProt P25963)
Assay: co-IP; co-IP of HSPB1 with Ikβ-α or NF-κB in MDA-MB-231 and MDA-MB-468 cells after treatment with 1 μM doxorubicin; which protein was precipitated is not told

Substance: heat shock protein beta-1 (HSPB1) (from UniProt P04792 1-205)
- binding: binds
